Measured values as given in PubChem BioAssay AID1671190 (National Center for Advancing Translational Sciences (NCATS), 2021).
Hit rate of the full screen: of about 580,000 compounds, about 6,100 (1.1%) were called active. The shares of active, inactive and inconclusive entries below differ from those in the screen. Calls come from the whole dose curve; as a rule, active = well fitted inhibition curve with a large enough effect; inconclusive = small, poorly fitted or top-dose-only effect, or another doubt; inactive = no such curve, though single readings can be large or run the other way. Potencies of inconclusive entries are doubtful fits and often do not repeat.

Protein sequences, listed by entry. Tags and fused reporters are not part of them. Lines headed by an entry give the natural chain unless they say otherwise; changes in a name come on top.
UniProt P18054: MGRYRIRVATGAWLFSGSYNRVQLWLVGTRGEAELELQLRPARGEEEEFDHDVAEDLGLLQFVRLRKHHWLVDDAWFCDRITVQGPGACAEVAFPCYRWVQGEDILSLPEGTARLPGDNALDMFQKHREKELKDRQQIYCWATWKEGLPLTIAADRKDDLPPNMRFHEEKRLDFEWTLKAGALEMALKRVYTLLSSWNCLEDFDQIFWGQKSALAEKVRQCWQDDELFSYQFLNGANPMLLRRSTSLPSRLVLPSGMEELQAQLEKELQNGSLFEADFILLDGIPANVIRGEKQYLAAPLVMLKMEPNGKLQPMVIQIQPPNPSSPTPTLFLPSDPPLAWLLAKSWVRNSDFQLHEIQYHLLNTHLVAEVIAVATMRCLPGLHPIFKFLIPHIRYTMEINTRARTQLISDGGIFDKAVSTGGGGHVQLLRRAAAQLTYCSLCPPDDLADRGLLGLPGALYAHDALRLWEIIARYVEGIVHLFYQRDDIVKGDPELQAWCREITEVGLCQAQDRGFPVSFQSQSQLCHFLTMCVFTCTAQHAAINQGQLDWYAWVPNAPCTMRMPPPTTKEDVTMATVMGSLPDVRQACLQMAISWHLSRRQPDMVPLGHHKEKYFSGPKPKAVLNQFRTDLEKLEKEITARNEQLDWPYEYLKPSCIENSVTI

Target: Polyunsaturated fatty acid lipoxygenase ALOX12 (Homo sapiens) (UniProt P18054)
Experiment: Primary qHTS assay for inhibitors of human arachidonate 12S-lipoxygenase (ALOX12): Round 2
Details: purified 12hLO, xylenol orange hydroperoxide absorbance; activity change, negative = inhibition: at 108 µM (top of the series) unless noted
Method in brief: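 Hydroperoxide product was detected by ferrous iron/xylenol orange as the 573 to 405 nm absorbance ratio. Arachidonic acid at 40 uM (final) was turned over for 30 min at room temperature by 150 nM human 12hLO, pH 7.0 Hepes buffer, after 15 min compound preincubation.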
% is set by controls: 0 for no effect and ±100 for the full control effect; potency is the fitted concentration of half-maximal effect.

Structure (SMILES) | Potency | activity change, negative = inhibition
Cc1ccc(-n2nc(-c3c(C)nc4scc(CC(=O)N5CCCC5)n4c3=O)cc2C)cc1 | inconclusive: 79.4 µM [inhibitor, single point] | –
N=c1ccn2c(n1)OCC1C2O[C@@H](O)[C@H]1O (some centres not stated) | inconclusive: 31.6 µM [inhibitor, partial curve, poor fit] | –
COc1ccc(C2CC(c3ccccc3)=NN2C(=O)CSc2nnc(-c3ccccc3)o2)cc1 (configuration not stated) | – | inactive: 4.05%
COc1ccc(OC)c(CN2CCN(S(=O)(=O)c3ccccc3)CC2)c1 | inconclusive: 3.98 µM [inhibitor, full curve, poor fit] | –
C=CCN1C=CC(=O)[C@@H](O)[C@H]1c1ccccc1Br | inconclusive: 0.316 µM [inhibitor, full curve, poor fit] | –
Cc1ccc(CNC(=O)[C@H](CC(C)C)NC(=O)N2CCn3c2nc2ccccc23)cc1 | – | inactive: 42.8%
C=CCNC(=O)NC(=O)CN(CC)Cc1cccs1 | – | inactive: 18.4%
COc1ccc(C[C@H](NC(=O)C2=C[C@@H](NS(=O)(=O)c3cccs3)[C@@H](O)[C@H](O)C2)C(N)=O)cc1 | inconclusive: 39.8 µM [inhibitor, partial curve, poor fit] | –
O=C(O)Cc1nc2nc3c(c(=O)n2[nH]1)CCCC3 | inconclusive: 2 µM [inhibitor, full curve, poor fit] | –
COc1ccc(-c2cn[nH]c2-c2ccc(OCc3ccccc3)cc2O)cc1 | inconclusive: 56.2 µM [inhibitor, partial curve, poor fit] | –
CCCOc1ccc(/C(O)=C2/C(=O)C(=O)N(CCCOC)C2c2cccnc2)cc1 (configuration not stated) | inconclusive: 4.47 µM [inhibitor, full curve, poor fit] | –
COC(=O)C1=C(C)N(Cc2ccccc2)C(=NCCc2c[nH]c3ccccc23)N[C@H]1c1cccc(F)c1 | inconclusive: 112 µM [inhibitor, single point] | –
CC(=NNC(=S)SCc1ccccc1)c1ccccn1 | inconclusive: 50.1 µM [inhibitor, partial curve, poor fit] | –
COc1ccc(S(=O)(=O)Nc2ccc3c(c2)C(=O)N([C@H](C)CO)C[C@H](C)[C@@H](CN(C)C(=O)Nc2ccc4c(c2)OCO4)O3)cc1 | inconclusive: 112 µM [inhibitor, single point] | –
COc1cccc(/C=C2\CC(C)Cc3c2nc2ccccc2c3C(=O)O)c1OC (configuration not stated) | inconclusive: 56.2 µM [inhibitor, partial curve, poor fit] | –
C=CCn1c(CC(C)(C)C)nc2ccccc21 | – | inactive: -2.84%
O=[N+]([O-])c1ccc(S(=O)(=O)N/N=C/c2cccs2)cc1 | inconclusive: 0.794 µM [inhibitor, full curve, poor fit] | –
Cc1ccc(C)c(N2C(=O)CC(Cc3ccc(Cl)cc3)C2=O)c1 (configuration not stated) | inconclusive: 39.8 µM [inhibitor, partial curve, poor fit] | –
Cc1cnc(CNc2ncnc3ccc(-c4ccccc4Cl)cc23)cn1 | – | inactive: -0.913%
CCCCNC(=O)C1CCC(CNc2c(N3CCC(C)CC3)c(=O)c2=O)CC1 (configuration not stated) | inconclusive: 100 µM [inhibitor, single point] | –
CCCSc1nc2c(c(=O)[nH]c(=O)n2C)n1CC(O)COc1ccc(Cl)cc1 (configuration not stated) | – | inactive: -13.2%
CCc1nn(-c2ccccc2)c(Oc2ccc(C)cc2)c1CCC(=O)N1CCSCC1 | inconclusive: 22.4 µM [inhibitor, full curve] | –
Cc1cc(OCC(O)CN2CCN(CCO)CC2)ccc1C(C)C (configuration not stated) | inconclusive: 39.8 µM [inhibitor, partial curve, poor fit] | –

Whole records, looked up by structure. Order of values: Potency	activity change, negative = inhibition
Cc1cnc(CNc2ncnc3ccc(-c4ccccc4Cl)cc23)cn1 is listed as –	inactive: -0.913%
C=CCn1c(CC(C)(C)C)nc2ccccc21 is listed as –	inactive: -2.84%

Further records.

Structure (SMILES) | Potency | activity change, negative = inhibition
COc1ccc(-c2cc(C(=O)OC(C)C#N)c3ccccc3n2)cc1OC (configuration not stated) | inconclusive: 70.8 µM [inhibitor, partial curve, poor fit] | –
O=C(Cc1n[nH]c(=O)[nH]c1=O)N/N=C/c1cccc(O)c1 | – | inactive: 12.6%
O=C(CCS(=O)(=O)c1ccc(Cl)cc1)Nc1nc(-c2ccncc2)cs1 | – | inactive: -13.5%
COc1ccc2c([N+](=O)[O-])c(C)[nH]c2c1 | inconclusive: 100 µM [inhibitor, single point] | –
COc1ccc(CCC(=O)Nc2nc3ccccc3[nH]2)cc1 | inconclusive: 25.1 µM [inhibitor, single point] | –
COc1ccccc1C(=O)Nc1cccc(C(=O)OCc2cc(=O)n3nc(C4CC4)sc3n2)c1 | inconclusive: 141 µM [inhibitor, partial curve, poor fit] | –
Cc1ccc(C)c(CNC(=O)c2ccc3c(c2)nc2n3CCOC2)c1 | – | inactive: 0.43%
CC(=O)c1cc(C)c(OC(=O)c2ccccc2)c(C)c1 | – | inactive: 9.63%
CC1CCCN(CCCNC(=O)c2ccc3c(c2)N(Cc2cccc(Cl)c2)C(=O)c2ccccc2S3(=O)=O)C1 (configuration not stated) | inconclusive: 56.2 µM [inhibitor, partial curve, poor fit] | –
O=C(Cn1cnc2cc([N+](=O)[O-])ccc2c1=O)Nc1ccccc1-c1ccccc1 | – | inactive: 19.7%
Cc1ccc(NC(=O)c2c3c(nc4ccccc24)CCCC3)cc1Cl | inconclusive: 39.8 µM [inhibitor, partial curve, poor fit] | –
COCCn1c(C)cc(C(=O)NCC(=O)N2CCCCCNC(=O)CC2c2ccccc2)c1C (configuration not stated) | – | inactive: 32.5%
CCCNC(=O)NC(=O)COC(=O)c1cccc(NS(=O)(=O)c2ccc(F)c(F)c2)c1 | inconclusive: 79.4 µM [inhibitor, single point] | –
COc1ccc(Cl)cc1NC(=O)C(=O)c1cn(CC(=O)N2CCOCC2)c2ccccc12 | – | inactive: 16.5%
COc1ccccc1N1CN(Cc2cccnc2)Cn2c1nc(C)c(Cc1ccccc1)c2=O | – | inactive: 3.69%
CN1CCN(C2CCN(Cc3ccc(O)c4ncccc34)CC2)CC1 | inconclusive: 39.8 µM [inhibitor, partial curve] | –
Cc1ccc(/C(O)=C2\C(=O)C(=O)N(CCCO)C2c2ccccc2)cc1 (configuration not stated) | inconclusive: 50.1 µM [inhibitor, partial curve, poor fit] | –
Cc1ccc(NC(=S)NCCc2c[nH]c3ccccc23)c(C)c1 | inconclusive: 39.8 µM [inhibitor, partial curve, poor fit] | –
O=C(/C=C/c1cccs1)N1CCc2ccccc21 | inconclusive: 79.4 µM [inhibitor, partial curve, poor fit] | –
CN(c1ccccc1)c1cc(=O)c2ccnc(NC3CCOCC3)c2o1 | – | inactive: 9.42% [at 176 µM]
CCN(CC(=O)NC(C)C)C(=O)C(CCSC)NC(=O)c1cccc(C)c1 (configuration not stated) | – | inactive: -4.34%
Cc1ccc(SCCN2CCN(CC(C)C)CCC2=O)cc1 | – | inactive: 0.52%
O=C(O)C1CC=CCC1C(=O)NCc1ccc2c(c1)OCO2 (configuration not stated) | inconclusive: 141 µM [inhibitor, partial curve, poor fit] | –

Three entries already listed, ordered by molecular weight, rising.
Structure (SMILES) | Potency | activity change, negative = inhibition
C=CCn1c(CC(C)(C)C)nc2ccccc21 | – | inactive: -2.84%
CN1CCN(C2CCN(Cc3ccc(O)c4ncccc34)CC2)CC1 | inconclusive: 39.8 µM [inhibitor, partial curve] | –
CCCSc1nc2c(c(=O)[nH]c(=O)n2C)n1CC(O)COc1ccc(Cl)cc1 (configuration not stated) | – | inactive: -13.2%

Additional results

Structure (SMILES) | Potency | activity change, negative = inhibition
COc1ccc(-c2csc(-n3ncc(C(=O)O)c3C(F)(F)F)n2)cc1 | inconclusive: 89.1 µM [inhibitor, partial curve, poor fit] | –
Cc1ccc(NC(=O)C[n+]2cc(-c3ccccc3)n3c2CCC3)c(C)c1 | inconclusive: 31.6 µM [inhibitor, single point] | –
COc1cccc(CNC(=O)Cn2ccc3cc(S(=O)(=O)N4CCCC4)ccc32)c1OC | inactive | –
CC(C)CNC(=O)Cc1ccc(-n2c(=O)c3ccccc3n(Cc3ccccc3F)c2=O)cc1 | – | inactive: 9.73%
Cc1cc(Br)ccc1OCC(=O)N(Cc1nc(-c2ccccc2)no1)C(C)C | – | inactive: 6.28%
CCOC(=O)c1c(NC(=O)COc2ncnc3sccc23)sc2c1CCC2 | inconclusive: 3.55 µM [inhibitor, full curve, poor fit] | –
C[C@H](CO)N1C[C@H](C)[C@@H](CN(C)CC2CC2)Oc2c(NS(=O)(=O)c3ccc(F)cc3)cccc2C1=O | inconclusive: 39.8 µM [inhibitor, single point] | –
Cc1[nH]c2ccccc2c1C(=O)C(=O)N1CCN(c2cccc(Cl)c2)CC1 | – | inactive: -2.68%
CN(C)C(=O)c1cccn2nccc12 | – | inactive: -1.57% [at 176 µM]
COc1ccc(CNC(=O)c2cc3cc4ccc(C)cc4nc3o2)cc1 | – | inactive: 0%
S=c1[nH]nc(Nc2ccccc2)s1 | inconclusive: 5.01 µM [inhibitor, full curve, poor fit] | –
CN(CCc1ccccc1)C(=O)c1ccc(NC(=O)Cc2ccc(NC(=O)C3CCN(C(=O)C4CC4)CC3)cc2)cc1 | inconclusive: 31.6 µM [inhibitor, partial curve, poor fit] | –
Cc1ccc(-n2c(Cc3cccn3C)nnc2SCC(=O)N2CCN(c3ccccc3)CC2)cc1 | – | inactive: -22.1%
O=C(NCC1(N2CCCCC2)CCCCC1)C1CC(=O)N(c2ccc3c(c2)OCCO3)C1 (configuration not stated) | – | inactive: -22.1%
CCn1c(SC)nnc1-c1nn(-c2ccccc2)ccc1=O | inconclusive: 39.8 µM [inhibitor, partial curve] | –
Cc1ccccc1NC(=O)CNC(=O)Cc1cccc2ccccc12 | – | inactive: 7.13%
CCc1cccc2c(C3=CCN(C(=O)c4ccccc4)CC3)c[nH]c12 | inconclusive: 39.8 µM [inhibitor, partial curve] | –
O=C(Cc1ccc([N+](=O)[O-])cc1)N1CCN=C1SCc1ccccc1 | – | inactive: -18.9%
COc1ccccc1CNC(=O)CSc1nc2ccccc2c2nc(=O)c(-c3ccccc3)nn12 | inconclusive: 6.31 µM [inhibitor, full curve, poor fit] | –
CC1CN(c2ccc([N+](=O)[O-])cc2Cl)CCN1S(C)(=O)=O (configuration not stated) | inconclusive: 56.2 µM [inhibitor, partial curve, poor fit] | –
CCCCn1c(=NC(=O)C(C)(C)Oc2ccc(Cl)cc2)c(C(=O)OCC)cc2c(=O)n3ccccc3nc21 | inconclusive: 1.58 µM [inhibitor, full curve, poor fit] | –
